Results on 1 substance are retold here after article PMC9555239.

Chains of the proteins cited; added tags and fusions are not shown.
UniProt P80192: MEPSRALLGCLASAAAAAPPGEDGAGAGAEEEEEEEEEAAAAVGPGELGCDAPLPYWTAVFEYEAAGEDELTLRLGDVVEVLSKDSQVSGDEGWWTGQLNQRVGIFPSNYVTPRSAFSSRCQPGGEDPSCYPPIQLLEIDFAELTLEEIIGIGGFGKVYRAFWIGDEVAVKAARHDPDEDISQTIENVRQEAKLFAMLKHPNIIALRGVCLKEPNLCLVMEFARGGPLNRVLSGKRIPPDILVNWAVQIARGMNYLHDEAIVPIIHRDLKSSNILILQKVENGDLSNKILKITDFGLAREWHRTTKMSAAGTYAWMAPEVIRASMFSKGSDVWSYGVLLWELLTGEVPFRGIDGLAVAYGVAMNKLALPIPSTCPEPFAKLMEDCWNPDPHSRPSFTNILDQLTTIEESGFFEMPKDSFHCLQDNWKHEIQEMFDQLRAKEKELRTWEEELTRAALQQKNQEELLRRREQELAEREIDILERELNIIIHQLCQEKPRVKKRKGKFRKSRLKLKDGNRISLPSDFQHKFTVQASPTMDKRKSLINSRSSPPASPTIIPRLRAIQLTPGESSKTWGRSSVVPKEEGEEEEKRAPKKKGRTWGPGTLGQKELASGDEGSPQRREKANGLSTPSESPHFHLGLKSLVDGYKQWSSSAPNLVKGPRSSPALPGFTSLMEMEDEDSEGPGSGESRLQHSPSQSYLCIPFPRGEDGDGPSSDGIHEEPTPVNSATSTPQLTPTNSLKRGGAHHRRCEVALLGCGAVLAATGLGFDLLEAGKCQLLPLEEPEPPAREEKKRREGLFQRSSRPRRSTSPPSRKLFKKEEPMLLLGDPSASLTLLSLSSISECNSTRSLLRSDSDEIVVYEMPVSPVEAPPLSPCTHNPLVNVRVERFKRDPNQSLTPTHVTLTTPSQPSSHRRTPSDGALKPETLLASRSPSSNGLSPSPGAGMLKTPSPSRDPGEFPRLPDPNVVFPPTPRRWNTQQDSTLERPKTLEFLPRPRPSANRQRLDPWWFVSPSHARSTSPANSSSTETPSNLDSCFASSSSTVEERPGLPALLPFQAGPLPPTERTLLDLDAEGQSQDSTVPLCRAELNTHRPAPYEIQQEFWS

This assay addresses T1, PCDH20 (UniProt Q8N6Y1).
T1 sequence: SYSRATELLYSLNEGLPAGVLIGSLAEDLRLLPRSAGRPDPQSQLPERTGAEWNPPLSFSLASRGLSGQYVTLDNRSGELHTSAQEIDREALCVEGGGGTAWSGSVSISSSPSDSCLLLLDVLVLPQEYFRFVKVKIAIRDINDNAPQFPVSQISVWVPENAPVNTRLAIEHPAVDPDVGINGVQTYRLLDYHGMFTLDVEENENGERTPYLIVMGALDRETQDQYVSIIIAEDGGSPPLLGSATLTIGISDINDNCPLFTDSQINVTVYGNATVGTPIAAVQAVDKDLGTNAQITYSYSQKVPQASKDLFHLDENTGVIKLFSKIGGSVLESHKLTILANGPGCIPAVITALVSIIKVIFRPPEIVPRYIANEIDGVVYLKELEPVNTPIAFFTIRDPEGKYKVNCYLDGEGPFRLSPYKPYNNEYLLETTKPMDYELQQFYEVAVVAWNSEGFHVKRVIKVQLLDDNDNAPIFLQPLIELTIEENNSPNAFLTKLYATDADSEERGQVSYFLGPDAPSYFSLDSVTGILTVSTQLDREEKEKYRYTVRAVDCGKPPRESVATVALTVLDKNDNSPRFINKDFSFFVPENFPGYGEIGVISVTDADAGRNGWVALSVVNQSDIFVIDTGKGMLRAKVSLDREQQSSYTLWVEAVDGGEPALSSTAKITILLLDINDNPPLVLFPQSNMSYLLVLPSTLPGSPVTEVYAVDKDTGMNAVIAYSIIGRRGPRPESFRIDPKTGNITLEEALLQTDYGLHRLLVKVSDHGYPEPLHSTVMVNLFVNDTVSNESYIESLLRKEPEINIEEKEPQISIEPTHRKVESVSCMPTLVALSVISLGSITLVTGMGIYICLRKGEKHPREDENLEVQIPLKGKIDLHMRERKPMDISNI
Nature of the assay: co-IP; cell lysate (lytic buffer, Beyotime P0013) incubated with primary antibody overnight at 4°C, Protein G-agarose beads 2 h at 4°C, washed 3 times, Western blot; cells and precipitating antibody not named.

No constants are given. Whether binding was seen depends on the method and setting. Binding seen in cells or lysates may run through a third protein. Some results given as binding are weak or reduced against the parent protein; the word gives no strength.

Take MAP3K9 (from UniProt P80192 1-1104): the binding result is “binds”.
